Test results published in publication PMC12040169 (PLOS Biology, 2025).
This is one part of the list.

Each compound was assayed on T1, CTL2-GFP (C. trachomatis L2/434/Bu, GFP-expressing). Conditions: bulk GFP, single well; 28.5 h, 10 µM; inhibitor.
T1 construct: L2/434/Bu, GFP-expressing
Set-up: species or system HeLa; Intracellular C. trachomatis growth in HeLa cells, bulk GFP fluorescence relative to DMSO
With COc1ccc(Oc2cncc(OC3CCN(CC4CC4)C3)n2)cc1OC (centres unmarked) [CBK084412] the “% of control remaining” value was 79.5721%. In the case of COc1ccc(C(=O)OC(C)(C)C)c(-c2nccnc2N[C@@H](C)c2ccccc2)c1 [CBK036994], the “% of control remaining” value was 93.8687%. With Nc1ncc(-c2cccc([N+](=O)[O-])c2)nc1-c1ccc(O)cc1 [CBK122507] the “% of control remaining” value was 129.641%. In the case of Cc1cc(=O)n2c3c(cc(S(=O)(=O)NC4CC4)cc13)CC2 [CBK218959], the “% of control remaining” value was 100.1%. For Cc1nn(C)c(Oc2cccc(C(F)(F)F)c2)c1C(=O)O [CBK000324], the “% of control remaining” value was 109.888%. For COc1ccc(C2CC(=O)C=C(Nc3cc(Cl)ccc3O)C2)cc1 (centres unmarked) [CBK263542], the “% of control remaining” value was 20.088%. O=C(O)c1ccc(NS(=O)(=O)c2cccc([N+](=O)[O-])c2)cc1O [CBK200022] was tested, and the “% of control remaining” value was 138.076%. For O=[N+]([O-])c1ccc(CN2CCN(C3CCN(Cc4ccccc4)CC3)CC2)cc1 [CBK264310G], the “% of control remaining” value was 100%. Cc1ccccc1Nc1ccccc1C(=O)O [CBK012249] was tested, and the “% of control remaining” value was 103.802%. With COc1cccc(CN2CCC3(CC2)NC(=O)Cc2ccc(C)cc23)c1 [CBK040219] the “% of control remaining” value was 118.154%. In the case of COc1cc2c(cc1NC(=O)c1ccc(C)c([N+](=O)[O-])c1)oc1ccccc12 [CBK263411], the “% of control remaining” value was 127.728%. COC(=O)c1c(-c2ccncc2)csc1NC(=O)Cc1ccc([N+](=O)[O-])cc1 [CBK268119] was tested, and the “% of control remaining” value was 107.739%. O=C(CN1CCC(c2ccccc2F)CC1)NCc1ccco1 [CBK283550] was tested, and the “% of control remaining” value was 117.315%. In the case of COC(=O)c1ccsc1NC(=O)CN1CCNCC1 [CBK057080], the “% of control remaining” value was 157.847%. With CCOC(=O)C1(Cc2cc(-c3ccccc3F)no2)CCNCC1 [CBK284580] the “% of control remaining” value was 69.3862%. CCNC(=O)N1CC(C)N(CCCCc2ccc(F)cc2)C(C)C1 (centres unmarked) [CBK025027C] was tested, and the “% of control remaining” value was 129.622%. With c1ccc(OCCN2CCC3(C2)NCCc2[nH]ccc23)cc1 (centres unmarked) [CBK084595T] the “% of control remaining” value was 114.248%. In the case of Cc1ccc2cc(CN(Cc3ccco3)S(C)(=O)=O)c(O)nc2c1 [CBK269409], the “% of control remaining” value was 166.915%. For CCOc1cc2c(cc1NS(=O)(=O)c1cc(C(=O)O)ccc1C)OC(C)C2 (centres unmarked) [CBK296711], the “% of control remaining” value was 132.45%. With CN1CCCC(NC(=O)Cn2nc(C(F)(F)F)c3c2CCCC3)C1 (centres unmarked) [CBK282548] the “% of control remaining” value was 119.503%. In the case of COc1ccc(C2=C(Nc3ccc(C(=O)NCc4cccnc4)cc3)c3ccccc3C2=O)cc1 [CBK263809], the “% of control remaining” value was 148.372%. In the case of COc1ccc(-c2cc(C3CCN(C4CCSCC4)C3)[nH]n2)cc1 (centres unmarked) [CBK285282], the “% of control remaining” value was 125.118%. In the case of O=C(CCCOc1ccc(Cl)cc1Cl)Nc1c[nH]c(=O)[nH]c1=O [CBK264235], the “% of control remaining” value was 104.941%. For CCc1c(C)nc2c(C(=O)NC(CC)COC)cnn2c1C (centres unmarked) [CBK162133], the “% of control remaining” value was 126.565%. In the case of CC1CC1C(=O)NC1CCN(CC2(c3ccccc3)CC2)CC1 (centres unmarked) [CBK285353], the “% of control remaining” value was 130.557%. For N#Cc1c(SCC(=O)O)nc(-c2cccs2)c2c1CCCC2 [CBK269858], the “% of control remaining” value was 116.77%. With CC(C)OC(=O)Cc1nc(CN2CCOC(c3ccc(F)cc3)C2)cs1 (centres unmarked) [CBK305439] the “% of control remaining” value was 95.5752%. For OCCC1CCCCN1c1cncc(-c2cccc(Cl)c2)n1 (centres unmarked) [CBK037906], the “% of control remaining” value was 84.9177%. In the case of N#Cc1c[nH]c(C(=O)NC2CCN(C(=O)c3ccccc3)CC2)c1 [CBK306433], the “% of control remaining” value was 140.347%. With CS(=O)(=O)Nc1nccnc1OC1CCN(CCc2c[nH]c3ccccc23)CC1 [CBK084282] the “% of control remaining” value was 83.2679%. With CCC(CO)Nc1cncc(-c2ccc3c(c2)OCO3)n1 (centres unmarked) [CBK065970] the “% of control remaining” value was 99.6838%. COCCn1cc(CN2CCC(CO)C2)c2ccccc21 (centres unmarked) [CBK282123] was tested, and the “% of control remaining” value was 140.104%. Cc1n[nH]c(C)c1CC(=O)N1CCCC(c2cc3ccccc3cn2)C1 (centres unmarked) [CBK285018] was tested, and the “% of control remaining” value was 90.1318%. In the case of Cc1nc(C(C)NC(=O)c2cc(C3CC3)nc3c2c(C)nn3C)cs1 (centres unmarked) [CBK304779], the “% of control remaining” value was 103.219%. In the case of COc1ncc(-c2cncc(NCCc3ccccn3)n2)c(OC)n1 [CBK065287], the “% of control remaining” value was 231.545%. With Cc1c(Nc2cnn(C34CC5CC(CC(CC(=O)O)(C5)C3)C4)c(=O)c2Cl)c(=O)n(-c2ccccc2)n1C [CBK268707] the “% of control remaining” value was 133.393%. For CC(Oc1cccc(Cl)c1)C(=O)O/N=C(\N)Cc1cccc2ccccc12 (centres unmarked) [CBK266033], the “% of control remaining” value was 177.368%. In the case of C=CCN(c1ccccc1)S(=O)(=O)c1ccc(Br)cc1CC [CBK038344], the “% of control remaining” value was 89.815%. In the case of Cc1nc2c(c(=O)[nH]1)CC[C@@H]1CN(C(=O)c3occ4ccccc34)C[C@H]21 [CBK284408], the “% of control remaining” value was 76.8946%. CN(C)CCN1CCN(c2cccc(-c3ccncc3)n2)CC1 [CBK037029] was tested, and the “% of control remaining” value was 164.833%. In the case of CS(=O)(=O)c1ccc(CNC(=O)c2ccccc2-n2cccc2)cc1 [CBK149612], the “% of control remaining” value was 111.72%. For O=C(Nc1ccc(Oc2ncccn2)cc1)c1csc(-c2ccccc2)n1 [CBK298324], the “% of control remaining” value was 122.003%. In the case of CS(=O)(=O)Nc1ccc(-c2cccc(C(F)(F)F)c2)c2ccccc12 [CBK083746], the “% of control remaining” value was 108.724%. O=C(c1ccc(F)cc1)C1CCN(CCc2c[nH]c3ccccc23)CC1 [CBK149125] was tested, and the “% of control remaining” value was 100%. CNc1nc(SCC(=O)Nc2ccc(Cl)c(Cl)c2)nc(N2CCOCC2)n1 [CBK269559] was tested, and the “% of control remaining” value was 182.331%. In the case of Cc1sc2ccc(-c3ccccc3)cc2[n+]1CCCS(=O)(=O)[O-] [CBK260947], the “% of control remaining” value was 109.708%. COc1ccc(S(=O)(=O)N(C)CC(=O)O)cc1 [CBK287086] was tested, and the “% of control remaining” value was 125.831%. With Cn1ccnc1CN1CCCC(CCC(=O)Nc2ccccc2F)C1 (centres unmarked) [CBK307462] the “% of control remaining” value was 193.902%. With CCCC(=O)N1CCCCC1c1nn(C)cc1-c1cc(C)no1 (centres unmarked) [CBK283407] the “% of control remaining” value was 90.0521%. COc1cc(NC(=O)N2CCC3(CC2)CC(=O)c2ccc(C)cc2O3)cc(OC)c1 [CBK166521] was tested, and the “% of control remaining” value was 125.016%.
